Some of the results follow. Residues, ends and D or L forms follow the SMILES beside them. *: point of attachment. Cbz = O=C(OCc1ccccc1)*
Columns and labels:
Test in all cases: log2 fold change, soluble protein after heating vs DMSO (PISA); higher = thermal stabilisation; K562 cells, 10 uM, 30 min; active = over 0.2 and 3.5 SD of the protein, either way, in both replicates (recomputed)
IRAK-1-4 Inhibitor I = compound: C1COCCN1CCN2C3=CC=CC=C3N=C2NC(=O)C4=CC(=CC=C4)[N+](=O)[O-] [IRAK-1-4 Inhibitor I]
In short: (§1)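 For each measurement, 10 μM compound was applied for 30 min to K562 cells at 2×10^6 cells/mL. Aliquots were heated for 3 min across 48°C-58°C, pooled, and extracted in PBS with 0.5% NP-40 at 4°C; the supernatant after 21,000xg for 90 min was soluble protein. This was quantified by TMTpro 16plex LC-MS/MS with channel sums equalised, and thermal stability was reported relative to control samples from duplicates, on a log2 fold-change scale.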

Amino acid sequences for entries named in this document (tags omitted). A change or cut given only in a name is not applied to a line headed by its entry.
UniProt Q9NXF7, whole entry, looked up: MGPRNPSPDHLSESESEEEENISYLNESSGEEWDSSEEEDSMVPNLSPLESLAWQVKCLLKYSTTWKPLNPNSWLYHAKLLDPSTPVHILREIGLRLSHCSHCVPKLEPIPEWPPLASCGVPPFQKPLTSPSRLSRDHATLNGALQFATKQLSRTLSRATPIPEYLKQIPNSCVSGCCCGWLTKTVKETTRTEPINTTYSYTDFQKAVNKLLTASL
UniProt P27707: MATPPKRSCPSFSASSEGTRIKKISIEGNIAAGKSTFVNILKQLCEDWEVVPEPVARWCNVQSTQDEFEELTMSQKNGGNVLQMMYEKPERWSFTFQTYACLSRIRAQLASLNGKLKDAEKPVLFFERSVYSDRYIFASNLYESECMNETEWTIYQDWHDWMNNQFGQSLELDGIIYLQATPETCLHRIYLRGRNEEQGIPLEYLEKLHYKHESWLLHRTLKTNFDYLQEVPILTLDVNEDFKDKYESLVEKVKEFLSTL
UniProt Q6PI48: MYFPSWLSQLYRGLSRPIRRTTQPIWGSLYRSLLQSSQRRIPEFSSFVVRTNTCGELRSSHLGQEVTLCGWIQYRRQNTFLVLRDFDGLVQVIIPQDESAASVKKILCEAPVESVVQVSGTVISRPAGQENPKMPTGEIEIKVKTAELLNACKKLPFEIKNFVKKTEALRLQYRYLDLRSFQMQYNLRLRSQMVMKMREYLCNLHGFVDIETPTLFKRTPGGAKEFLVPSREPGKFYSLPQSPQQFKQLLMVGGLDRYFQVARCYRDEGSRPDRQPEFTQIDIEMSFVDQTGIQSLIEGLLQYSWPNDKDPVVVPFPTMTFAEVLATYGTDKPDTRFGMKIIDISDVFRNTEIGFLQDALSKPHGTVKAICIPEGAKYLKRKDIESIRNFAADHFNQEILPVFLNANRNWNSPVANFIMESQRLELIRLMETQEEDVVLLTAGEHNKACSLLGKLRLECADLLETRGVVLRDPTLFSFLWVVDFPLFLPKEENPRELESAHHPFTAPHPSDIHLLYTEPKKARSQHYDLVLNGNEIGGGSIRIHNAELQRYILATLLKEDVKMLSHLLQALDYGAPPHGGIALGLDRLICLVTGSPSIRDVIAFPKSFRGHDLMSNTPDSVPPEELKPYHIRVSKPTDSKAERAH
UniProt P26232: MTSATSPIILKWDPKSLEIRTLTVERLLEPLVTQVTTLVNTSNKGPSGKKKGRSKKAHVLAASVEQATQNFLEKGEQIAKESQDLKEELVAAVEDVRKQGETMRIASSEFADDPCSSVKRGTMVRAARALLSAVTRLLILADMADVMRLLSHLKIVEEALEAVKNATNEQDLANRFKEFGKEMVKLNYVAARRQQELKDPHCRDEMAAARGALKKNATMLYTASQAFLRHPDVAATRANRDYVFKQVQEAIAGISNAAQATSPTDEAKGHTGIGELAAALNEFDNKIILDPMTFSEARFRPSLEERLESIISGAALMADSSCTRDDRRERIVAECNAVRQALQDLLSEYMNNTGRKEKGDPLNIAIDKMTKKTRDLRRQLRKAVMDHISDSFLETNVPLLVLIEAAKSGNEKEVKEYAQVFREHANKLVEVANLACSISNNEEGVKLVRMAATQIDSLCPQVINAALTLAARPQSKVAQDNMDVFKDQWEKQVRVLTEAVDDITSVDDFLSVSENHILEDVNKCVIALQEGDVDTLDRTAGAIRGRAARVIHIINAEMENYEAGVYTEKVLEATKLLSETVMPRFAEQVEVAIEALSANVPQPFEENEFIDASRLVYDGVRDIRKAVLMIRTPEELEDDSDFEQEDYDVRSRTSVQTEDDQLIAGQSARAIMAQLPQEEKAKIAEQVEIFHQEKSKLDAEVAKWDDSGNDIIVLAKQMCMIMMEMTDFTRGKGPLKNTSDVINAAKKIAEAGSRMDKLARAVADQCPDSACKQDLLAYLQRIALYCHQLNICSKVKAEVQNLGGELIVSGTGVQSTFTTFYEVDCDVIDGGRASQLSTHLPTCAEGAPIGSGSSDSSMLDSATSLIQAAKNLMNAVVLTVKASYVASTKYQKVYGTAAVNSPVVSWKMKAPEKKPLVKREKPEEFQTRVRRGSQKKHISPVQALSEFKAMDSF
UniProt Q96F07, whole entry, looked up: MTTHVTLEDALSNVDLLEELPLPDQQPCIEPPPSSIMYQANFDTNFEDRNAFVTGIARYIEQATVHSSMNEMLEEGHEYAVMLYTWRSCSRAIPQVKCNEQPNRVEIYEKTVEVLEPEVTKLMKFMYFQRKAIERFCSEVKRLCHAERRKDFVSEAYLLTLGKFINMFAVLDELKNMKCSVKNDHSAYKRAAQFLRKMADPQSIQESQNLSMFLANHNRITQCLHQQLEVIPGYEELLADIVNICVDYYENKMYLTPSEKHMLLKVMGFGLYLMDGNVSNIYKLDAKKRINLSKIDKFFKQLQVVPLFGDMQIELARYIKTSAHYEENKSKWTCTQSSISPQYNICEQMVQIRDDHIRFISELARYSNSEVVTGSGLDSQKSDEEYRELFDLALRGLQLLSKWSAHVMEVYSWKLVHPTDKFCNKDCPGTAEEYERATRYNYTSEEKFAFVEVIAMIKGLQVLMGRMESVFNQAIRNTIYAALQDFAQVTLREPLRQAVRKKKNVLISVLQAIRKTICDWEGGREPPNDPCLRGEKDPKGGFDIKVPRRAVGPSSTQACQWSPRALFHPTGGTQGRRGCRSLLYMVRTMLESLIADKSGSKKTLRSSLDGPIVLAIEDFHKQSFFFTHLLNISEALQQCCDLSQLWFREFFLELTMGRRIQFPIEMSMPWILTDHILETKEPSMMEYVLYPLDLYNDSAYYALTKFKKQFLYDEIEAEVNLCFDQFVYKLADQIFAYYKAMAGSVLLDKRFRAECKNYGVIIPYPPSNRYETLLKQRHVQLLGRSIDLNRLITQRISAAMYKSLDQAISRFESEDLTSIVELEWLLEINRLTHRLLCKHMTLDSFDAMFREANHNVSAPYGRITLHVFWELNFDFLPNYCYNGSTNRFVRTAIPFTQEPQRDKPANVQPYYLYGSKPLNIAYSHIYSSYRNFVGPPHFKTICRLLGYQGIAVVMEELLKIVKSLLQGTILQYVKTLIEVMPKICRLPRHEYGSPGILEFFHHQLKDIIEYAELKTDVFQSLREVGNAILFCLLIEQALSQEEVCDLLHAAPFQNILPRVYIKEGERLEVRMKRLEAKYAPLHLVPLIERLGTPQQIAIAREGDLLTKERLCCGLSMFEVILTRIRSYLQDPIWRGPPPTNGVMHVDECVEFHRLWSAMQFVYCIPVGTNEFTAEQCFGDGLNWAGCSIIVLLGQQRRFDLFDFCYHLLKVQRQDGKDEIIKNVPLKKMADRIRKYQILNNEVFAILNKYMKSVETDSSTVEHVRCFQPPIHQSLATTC
UniProt P09668: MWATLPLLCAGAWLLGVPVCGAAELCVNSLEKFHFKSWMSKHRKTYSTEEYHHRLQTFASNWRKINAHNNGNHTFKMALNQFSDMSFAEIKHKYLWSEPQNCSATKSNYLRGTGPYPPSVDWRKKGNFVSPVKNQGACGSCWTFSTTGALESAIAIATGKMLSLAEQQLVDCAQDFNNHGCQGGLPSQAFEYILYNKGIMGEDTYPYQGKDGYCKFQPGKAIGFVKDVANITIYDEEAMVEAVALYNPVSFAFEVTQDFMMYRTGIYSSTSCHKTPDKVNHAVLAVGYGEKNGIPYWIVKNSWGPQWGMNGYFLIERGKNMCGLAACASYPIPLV
UniProt P0DMU8: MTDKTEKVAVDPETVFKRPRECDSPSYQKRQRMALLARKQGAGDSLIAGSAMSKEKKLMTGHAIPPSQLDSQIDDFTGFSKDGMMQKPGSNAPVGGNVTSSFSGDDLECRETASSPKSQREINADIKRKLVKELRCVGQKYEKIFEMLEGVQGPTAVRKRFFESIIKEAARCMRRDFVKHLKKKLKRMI
UniProt Q13616, whole entry, looked up: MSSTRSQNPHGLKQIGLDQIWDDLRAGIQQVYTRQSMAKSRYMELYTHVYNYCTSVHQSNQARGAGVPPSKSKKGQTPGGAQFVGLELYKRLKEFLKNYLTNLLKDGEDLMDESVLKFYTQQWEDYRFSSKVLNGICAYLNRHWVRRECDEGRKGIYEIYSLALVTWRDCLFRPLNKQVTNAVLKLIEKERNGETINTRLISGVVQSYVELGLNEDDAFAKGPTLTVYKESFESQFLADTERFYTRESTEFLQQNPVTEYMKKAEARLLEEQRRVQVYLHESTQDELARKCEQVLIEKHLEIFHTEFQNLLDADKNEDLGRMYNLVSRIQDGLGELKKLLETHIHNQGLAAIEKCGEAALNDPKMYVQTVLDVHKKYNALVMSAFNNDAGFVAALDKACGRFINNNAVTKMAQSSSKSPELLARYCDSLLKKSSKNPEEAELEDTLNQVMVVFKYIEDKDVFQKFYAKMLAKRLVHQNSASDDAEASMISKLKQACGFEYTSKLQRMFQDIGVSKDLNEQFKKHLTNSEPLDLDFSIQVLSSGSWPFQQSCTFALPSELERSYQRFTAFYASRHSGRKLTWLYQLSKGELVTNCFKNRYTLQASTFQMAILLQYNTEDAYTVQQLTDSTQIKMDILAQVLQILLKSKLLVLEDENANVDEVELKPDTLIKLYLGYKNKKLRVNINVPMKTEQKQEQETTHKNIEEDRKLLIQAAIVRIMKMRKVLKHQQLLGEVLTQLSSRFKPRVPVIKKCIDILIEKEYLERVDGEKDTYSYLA
UniProt Q8NCG7: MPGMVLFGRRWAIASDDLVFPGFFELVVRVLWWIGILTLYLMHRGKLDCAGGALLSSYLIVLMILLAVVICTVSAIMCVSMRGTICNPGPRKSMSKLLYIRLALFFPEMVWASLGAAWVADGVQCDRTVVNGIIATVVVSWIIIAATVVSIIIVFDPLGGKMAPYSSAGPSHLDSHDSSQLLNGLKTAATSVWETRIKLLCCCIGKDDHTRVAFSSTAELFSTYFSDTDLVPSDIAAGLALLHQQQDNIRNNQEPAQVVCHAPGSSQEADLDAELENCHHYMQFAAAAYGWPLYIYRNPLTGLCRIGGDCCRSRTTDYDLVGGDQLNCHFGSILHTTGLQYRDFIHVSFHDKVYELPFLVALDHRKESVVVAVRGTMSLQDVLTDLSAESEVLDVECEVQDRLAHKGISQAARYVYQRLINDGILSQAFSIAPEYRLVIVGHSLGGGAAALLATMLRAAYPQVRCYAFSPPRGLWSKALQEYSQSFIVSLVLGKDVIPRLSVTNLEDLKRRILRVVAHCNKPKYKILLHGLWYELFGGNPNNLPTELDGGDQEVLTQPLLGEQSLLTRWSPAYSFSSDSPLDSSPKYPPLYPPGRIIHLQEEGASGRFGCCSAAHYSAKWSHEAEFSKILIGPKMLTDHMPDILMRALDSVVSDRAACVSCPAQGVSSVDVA
UniProt Q9NXE8: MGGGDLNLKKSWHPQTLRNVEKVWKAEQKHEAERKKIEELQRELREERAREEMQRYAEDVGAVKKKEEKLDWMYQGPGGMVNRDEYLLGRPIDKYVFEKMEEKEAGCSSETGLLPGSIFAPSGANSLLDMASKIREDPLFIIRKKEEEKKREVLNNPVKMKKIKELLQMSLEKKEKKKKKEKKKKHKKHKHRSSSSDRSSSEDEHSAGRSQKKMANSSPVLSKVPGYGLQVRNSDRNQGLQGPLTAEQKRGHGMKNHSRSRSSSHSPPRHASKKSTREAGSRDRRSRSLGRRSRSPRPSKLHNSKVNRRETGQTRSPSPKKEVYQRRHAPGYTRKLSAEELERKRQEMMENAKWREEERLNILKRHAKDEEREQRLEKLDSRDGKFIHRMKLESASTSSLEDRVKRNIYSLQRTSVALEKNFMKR
UniProt P17812: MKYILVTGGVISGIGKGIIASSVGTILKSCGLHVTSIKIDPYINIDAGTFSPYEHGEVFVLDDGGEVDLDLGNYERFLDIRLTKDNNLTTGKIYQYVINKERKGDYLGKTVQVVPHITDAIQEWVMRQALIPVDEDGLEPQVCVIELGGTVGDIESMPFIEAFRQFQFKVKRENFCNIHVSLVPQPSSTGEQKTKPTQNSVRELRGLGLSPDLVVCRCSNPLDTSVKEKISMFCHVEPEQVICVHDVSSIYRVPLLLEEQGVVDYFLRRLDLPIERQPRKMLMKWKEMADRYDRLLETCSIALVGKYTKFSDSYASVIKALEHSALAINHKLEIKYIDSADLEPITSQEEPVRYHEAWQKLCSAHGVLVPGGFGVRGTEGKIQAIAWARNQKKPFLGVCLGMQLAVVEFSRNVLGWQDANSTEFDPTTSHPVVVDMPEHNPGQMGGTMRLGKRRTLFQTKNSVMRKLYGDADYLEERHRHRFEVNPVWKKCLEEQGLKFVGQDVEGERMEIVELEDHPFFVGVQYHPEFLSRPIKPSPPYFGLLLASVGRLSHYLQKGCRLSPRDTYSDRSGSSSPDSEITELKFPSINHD

ibrutinib = compound: C=CC(=O)N1CCC[C@@H](n2nc(-c3ccc(Oc4ccccc4)cc3)c3c(N)ncnc32)C1 [ibrutinib]
In short: as §1

[1] = compound: CC(=O)c1cnc2ccc(-c3cc(Cl)c(O)c(Cl)c3)nc2c1N[C@H]1CC[C@H](CN(C)C)CC1
In short: as §1

ralimetinib = compound: CC(C)(C)Cn1c(N)nc2ccc(-c3[nH]c(C(C)(C)C)nc3-c3ccc(F)cc3)nc21 [ralimetinib]
In short: as §1

[2] = compound: CC(C)(O)CC(=O)NCCn1ccc2ncnc(Nc3ccc(Oc4cccc(C(F)(F)F)c4)c(Cl)c3)c21
In short: as §1

[3] = compound: CC(C)C1=C2N=C(C=C(N2N=C1)NCC3=CC=CC=C3)NCCCCCCN
In short: as §1

[4] = compound: CC(C)C[C@@H](C=O)NC(=O)[C@H](CC(C)C)NC(=O)[C@H](CC(C)C)NC(=O)OCc1ccccc1
In short: as §1

pinometostat = compound: CC(C)N(C[C@H]1O[C@@H](n2cnc3c(N)ncnc32)[C@H](O)[C@@H]1O)[C@H]1C[C@@H](CCc2nc3cc(C(C)(C)C)ccc3[nH]2)C1 [pinometostat]
In short: as §1

[5] = compound: CC1=C(C2=C(C=C1)C(=O)C3=CC=CC=C3N2CCCN)C
In short: as §1

[6] = compound: CC1=C(C=C(C=C1)NC(=O)C2=CC(=CC=C2)C(C)(C)C#N)NC3=CC4=C(C=C3)N=CN(C4=O)C
In short: as §1

[7] = compound: CC1=C(C=C(C=C1)NC(=O)C2=CC(=CC=C2)N(C)C)NC(=O)C3=CC=C(C=C3)O
In short: as §1

[8] = compound: CC1=CC=C(C=C1)SC2=C3C=C(SC3=CN=C2)C(=O)N
In short: as §1

[9] = compound: CC1=NC(=CC=C1)C2=C(N=C(N2)C(C)(C)C)C3=CC4=NC=CN=C4C=C3
In short: as §1

Nexturastat A = compound: CCCCN(Cc1ccc(C(=O)NO)cc1)C(=O)Nc1ccccc1 [Nexturastat A]
In short: as §1

vemurafenib = compound: CCCS(=O)(=O)Nc1ccc(F)c(C(=O)c2c[nH]c3ncc(-c4ccc(Cl)cc4)cc23)c1F [vemurafenib]
In short: as §1

[10] = compound: CCCS(=O)(=O)Nc1ccc(F)c(C(=O)c2c[nH]c3ncc(Cl)cc23)c1F
In short: as §1

[11] = compound: CCCc1cc(C)[nH]c(=O)c1CNC(=O)c1cc(-c2ccnc(N3CCN(C)CC3)c2)cc2c1cnn2C(C)C
In short: as §1

givinostat = compound: CCN(CC)Cc1ccc2cc(COC(=O)Nc3ccc(C(=O)NO)cc3)ccc2c1 [givinostat]
In short: as §1

barasertib = compound: CCN(CCCOc1ccc2c(Nc3cc(CC(=O)Nc4cccc(F)c4)[nH]n3)ncnc2c1)CCOP(=O)(O)O [barasertib]
In short: as §1

[12] = compound: CC1=C(C(CC(=O)N1)C2=CC=C(C=C2)C(F)(F)F)C(=O)NC3=C(C=C4C(=C3)C=NN4)F
In short: as §1

| Target | log2 fold change (IRAK-1-4 Inhibitor I) | log2 fold change (ibrutinib) | log2 fold change [1] | log2 fold change (ralimetinib) | log2 fold change [2] | log2 fold change [3] | log2 fold change [4] | log2 fold change (pinometostat) | log2 fold change [5] | log2 fold change [6] | log2 fold change [7] | log2 fold change [8] | log2 fold change [9] | log2 fold change (Nexturastat A) | log2 fold change (vemurafenib) | log2 fold change [10] | log2 fold change [11] | log2 fold change (givinostat) | log2 fold change (barasertib) | log2 fold change [12] |
| --- | --- | --- | --- | --- | --- | --- | --- | --- | --- | --- | --- | --- | --- | --- | --- | --- | --- | --- | --- | --- |
| DCAF16 (UniProt Q9NXF7) | inactive: -0.04 | inactive: 0.017 | inactive: 0.039 | inactive: 0.034 | inactive: -0.052 | inactive: -0.027 | inactive: 0.018 | inactive: 0.055 | inactive: -0.105 | inactive: -0.036 | inactive: -0.013 | inactive: 0.059 | inactive: -0.015 | inactive: 0.063 | inactive: 0.151 | inactive: 0.185 | inactive: 0.042 | inactive: -0.016 | inactive: 0.024 | – |
| DCK (UniProt P27707) | inactive: 0.09 | inactive: 0.025 | inactive: 0.046 | inactive: 0.063 | inactive: -0.054 | inactive: 0.051 | inactive: -0.023 | inactive: -0.011 | inactive: 0.04 | inactive: 0.055 | inactive: 0.005 | inactive: 0.007 | inactive: 0.025 | inactive: -0.024 | inactive: 0.038 | inactive: 0.021 | inactive: -0.075 | inactive: 0.115 | inactive: 0.004 | inactive: 0.012 |
| DARS2 (UniProt Q6PI48) | inactive: -0.019 | inactive: 0.015 | inactive: 0.055 | inactive: 0.001 | inactive: 0 | inactive: -0.001 | inactive: -0.028 | inactive: -0.051 | inactive: 0.016 | inactive: 0.001 | inactive: 0.018 | inactive: -0.015 | inactive: 0.016 | inactive: 0.019 | inactive: 0.015 | inactive: 0.019 | inactive: -0.012 | inactive: -0.042 | inactive: -0.028 | inactive: 0.04 |
| CUL4B (UniProt K4DI93) | inactive: 0.028 | inactive: 0.018 | inactive: -0.016 | inactive: -0.022 | inactive: -0.026 | inactive: 0.021 | inactive: -0.07 | inactive: -0.024 | inactive: 0.006 | inactive: -0.011 | inactive: -0.013 | inactive: 0.039 | inactive: 0.015 | inactive: -0.036 | inactive: 0.004 | inactive: -0.002 | inactive: 0.011 | inactive: -0.004 | inactive: 0.018 | inactive: -0.009 |
| CYFIP1 (UniProt Q7L576) | inactive: -0.001 | inactive: -0.019 | inactive: -0.07 | inactive: -0.013 | inactive: -0.056 | inactive: -0.042 | inactive: -0.013 | inactive: 0.001 | inactive: 0.026 | inactive: 0.012 | inactive: 0.005 | inactive: 0.017 | inactive: 0.035 | inactive: -0.043 | inactive: 0.026 | inactive: 0.019 | inactive: 0.006 | inactive: -0.005 | inactive: 0.038 | – |
| CTSL (UniProt P07711) | inactive: 0.068 | inactive: 0.009 | inactive: 0.099 | inactive: 0.022 | inactive: -0.014 | active: -0.412 | inactive: 0.098 | inactive: -0.006 | inactive: -0.031 | inactive: -0.083 | inactive: 0.014 | inactive: -0.049 | inactive: 0.013 | inactive: 0.085 | inactive: -0.023 | inactive: -0.05 | inactive: 0.033 | inactive: 0.121 | inactive: 0.092 | – |
| CTNNA2 (UniProt P26232) | inactive: 0 | inactive: -0.014 | inactive: -0.004 | inactive: -0.041 | inactive: -0.088 | inactive: 0.02 | inactive: 0.015 | inactive: 0.001 | inactive: -0.027 | inactive: 0.029 | inactive: 0.04 | inactive: 0.095 | inactive: 0.031 | inactive: 0.016 | inactive: -0.001 | inactive: -0.004 | inactive: 0.083 | inactive: 0.014 | inactive: 0.024 | inactive: -0.02 |
| CYFIP2 (UniProt Q96F07) | inactive: 0 | inactive: 0.019 | inactive: -0.097 | inactive: 0.035 | inactive: -0.014 | inactive: -0.044 | inactive: 0.037 | inactive: -0.002 | inactive: -0.017 | inactive: 0.005 | inactive: -0.022 | inactive: -0.048 | inactive: 0.029 | inactive: -0.058 | inactive: 0.04 | inactive: -0.018 | inactive: -0.003 | inactive: -0.004 | inactive: 0.013 | inactive: 0.03 |
| CTSH (UniProt P09668) | inactive: 0.009 | inactive: 0.034 | inactive: 0.005 | inactive: 0.104 | inactive: 0.005 | inactive: -0.142 | inactive: -0.016 | inactive: -0.06 | inactive: -0.043 | inactive: -0.007 | inactive: 0.066 | inactive: 0.013 | inactive: 0.093 | inactive: -0.047 | inactive: 0.023 | inactive: -0.034 | inactive: 0.157 | inactive: 0.003 | inactive: -0.019 | – |
| DBR1 (UniProt Q9UK59) | inactive: -0.04 | inactive: 0.02 | inactive: -0.043 | inactive: 0.037 | inactive: 0.006 | inactive: 0.032 | inactive: -0.026 | inactive: -0.012 | inactive: 0.114 | inactive: -0.005 | inactive: 0.028 | inactive: 0.007 | inactive: 0.049 | inactive: -0.007 | inactive: 0.024 | inactive: 0.037 | inactive: -0.033 | inactive: -0.16 | inactive: -0.022 | – |
| CT45A5 (UniProt P0DMU8) | inactive: -0.121 | inactive: -0.032 | inactive: 0.051 | inactive: 0.16 | inactive: 0.055 | inactive: 0.06 | inactive: 0.045 | inactive: 0.103 | inactive: -0.089 | inactive: 0.042 | inactive: -0.031 | inactive: -0.042 | inactive: -0.05 | inactive: 0.068 | inactive: -0.052 | inactive: 0.019 | inactive: 0.095 | inactive: 0.022 | inactive: -0.105 | inactive: 0.009 |
| CUL1 (UniProt Q13616) | inactive: 0.014 | inactive: 0.017 | inactive: 0.031 | inactive: -0.026 | inactive: -0.009 | inactive: 0.079 | inactive: -0.051 | inactive: -0.057 | inactive: 0.011 | inactive: -0.011 | inactive: -0.005 | inactive: 0.04 | inactive: 0.031 | inactive: -0.059 | inactive: 0.004 | inactive: 0.011 | inactive: -0.045 | inactive: -0.014 | inactive: -0.004 | inactive: 0.033 |
| CUTC (UniProt Q9NTM9) | inactive: 0.014 | inactive: 0.013 | inactive: -0.08 | inactive: -0.038 | inactive: 0.036 | inactive: 0.038 | inactive: -0.042 | inactive: -0.008 | inactive: 0.051 | inactive: -0.024 | inactive: 0.012 | inactive: 0.045 | inactive: 0.029 | inactive: -0.035 | inactive: -0.017 | inactive: -0.035 | inactive: -0.059 | inactive: 0.02 | inactive: 0.021 | inactive: 0.047 |
| DAGLB (UniProt Q8NCG7) | inactive: 0.029 | inactive: 0.051 | inactive: 0.005 | inactive: 0.032 | inactive: -0.006 | inactive: 0.089 | inactive: 0.017 | inactive: 0.007 | inactive: -0.037 | inactive: -0.012 | inactive: -0.025 | inactive: 0.166 | inactive: -0.037 | inactive: 0.041 | inactive: -0.011 | inactive: -0.044 | inactive: 0.011 | inactive: -0.022 | inactive: 0.013 | inactive: -0.007 |
| CWC25 (UniProt Q9NXE8) | inactive: -0.209 | inactive: -0.071 | inactive: 0.007 | inactive: 0.087 | inactive: 0.048 | inactive: 0.071 | inactive: 0.196 | inactive: 0.208 | inactive: 0.172 | inactive: -0.052 | inactive: 0.035 | – | inactive: 0.012 | inactive: 0.172 | – | – | inactive: 0.092 | inactive: 0.098 | inactive: 0.052 | inactive: 0.008 |
| CTPS1 (UniProt P17812) | inactive: 0.045 | inactive: 0.017 | inactive: 0.019 | inactive: -0.033 | inactive: -0.021 | inactive: 0.041 | inactive: -0.014 | inactive: -0.032 | inactive: 0.018 | inactive: -0.023 | inactive: 0.02 | inactive: 0.013 | inactive: 0.022 | inactive: -0.08 | inactive: -0.025 | inactive: 0.004 | inactive: -0.021 | inactive: -0.024 | inactive: -0.002 | inactive: 0.033 |
| DAZAP1 (UniProt Q96EP5) | inactive: -0.052 | inactive: 0.068 | inactive: 0.016 | inactive: 0.003 | inactive: 0.092 | inactive: 0.084 | inactive: 0.005 | inactive: -0.035 | inactive: 0.208 | inactive: 0.059 | inactive: 0.039 | inactive: -0.032 | inactive: 0.026 | inactive: 0 | inactive: 0.028 | inactive: 0.035 | inactive: 0.213 | inactive: -0.032 | inactive: -0.047 | inactive: -0.033 |

Exported with bars between the fields: part of the list above.
Target | log2 fold change (IRAK-1-4 Inhibitor I) | log2 fold change (ibrutinib) | log2 fold change [1] | log2 fold change (ralimetinib) | log2 fold change [2] | log2 fold change [3] | log2 fold change [4] | log2 fold change (pinometostat) | log2 fold change [5] | log2 fold change [6] | log2 fold change [7] | log2 fold change [8] | log2 fold change [9] | log2 fold change (Nexturastat A) | log2 fold change (vemurafenib) | log2 fold change [10] | log2 fold change [11] | log2 fold change (givinostat) | log2 fold change (barasertib) | log2 fold change [12]
CUL4B (UniProt K4DI93) | inactive: 0.028 | inactive: 0.018 | inactive: -0.016 | inactive: -0.022 | inactive: -0.026 | inactive: 0.021 | inactive: -0.07 | inactive: -0.024 | inactive: 0.006 | inactive: -0.011 | inactive: -0.013 | inactive: 0.039 | inactive: 0.015 | inactive: -0.036 | inactive: 0.004 | inactive: -0.002 | inactive: 0.011 | inactive: -0.004 | inactive: 0.018 | inactive: -0.009
CUTC (UniProt Q9NTM9) | inactive: 0.014 | inactive: 0.013 | inactive: -0.08 | inactive: -0.038 | inactive: 0.036 | inactive: 0.038 | inactive: -0.042 | inactive: -0.008 | inactive: 0.051 | inactive: -0.024 | inactive: 0.012 | inactive: 0.045 | inactive: 0.029 | inactive: -0.035 | inactive: -0.017 | inactive: -0.035 | inactive: -0.059 | inactive: 0.02 | inactive: 0.021 | inactive: 0.047
DAGLB (UniProt Q8NCG7) | inactive: 0.029 | inactive: 0.051 | inactive: 0.005 | inactive: 0.032 | inactive: -0.006 | inactive: 0.089 | inactive: 0.017 | inactive: 0.007 | inactive: -0.037 | inactive: -0.012 | inactive: -0.025 | inactive: 0.166 | inactive: -0.037 | inactive: 0.041 | inactive: -0.011 | inactive: -0.044 | inactive: 0.011 | inactive: -0.022 | inactive: 0.013 | inactive: -0.007
CWC25 (UniProt Q9NXE8) | inactive: -0.209 | inactive: -0.071 | inactive: 0.007 | inactive: 0.087 | inactive: 0.048 | inactive: 0.071 | inactive: 0.196 | inactive: 0.208 | inactive: 0.172 | inactive: -0.052 | inactive: 0.035 | – | inactive: 0.012 | inactive: 0.172 | – | – | inactive: 0.092 | inactive: 0.098 | inactive: 0.052 | inactive: 0.008

Reference: the supplement of paper PMC10849652
